Consider 1 substance from PMC4884786.

Protein sequences, listed by entry. Tags and fused reporters are not part of them. Lines headed by an entry give the natural chain unless they say otherwise; changes in a name come on top.
UniProt Q9UF56: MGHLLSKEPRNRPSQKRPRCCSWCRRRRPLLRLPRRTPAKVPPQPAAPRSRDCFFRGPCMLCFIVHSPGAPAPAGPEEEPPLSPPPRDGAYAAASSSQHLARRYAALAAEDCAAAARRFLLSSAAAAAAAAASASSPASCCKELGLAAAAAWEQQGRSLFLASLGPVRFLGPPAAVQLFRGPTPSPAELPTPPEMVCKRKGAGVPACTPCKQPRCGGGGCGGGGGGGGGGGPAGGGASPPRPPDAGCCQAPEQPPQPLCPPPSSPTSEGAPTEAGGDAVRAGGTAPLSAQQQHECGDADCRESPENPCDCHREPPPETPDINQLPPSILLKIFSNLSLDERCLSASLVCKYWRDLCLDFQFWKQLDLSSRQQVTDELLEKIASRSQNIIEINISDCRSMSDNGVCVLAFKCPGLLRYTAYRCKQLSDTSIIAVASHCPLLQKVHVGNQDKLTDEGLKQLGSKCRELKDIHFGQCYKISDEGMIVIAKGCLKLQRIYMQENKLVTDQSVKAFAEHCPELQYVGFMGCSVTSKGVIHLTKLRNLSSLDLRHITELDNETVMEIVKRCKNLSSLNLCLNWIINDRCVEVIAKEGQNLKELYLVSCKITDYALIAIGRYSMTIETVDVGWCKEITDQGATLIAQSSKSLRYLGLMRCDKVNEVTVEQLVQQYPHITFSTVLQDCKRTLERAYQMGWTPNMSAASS
UniProt P63208: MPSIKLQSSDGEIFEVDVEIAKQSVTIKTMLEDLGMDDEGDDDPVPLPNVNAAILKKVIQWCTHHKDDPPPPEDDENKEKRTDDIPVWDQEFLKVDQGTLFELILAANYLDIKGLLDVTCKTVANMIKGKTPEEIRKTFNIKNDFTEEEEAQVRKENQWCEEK

These are yes or no findings as the source states them, for the method shown. Binding seen in cells or lysates may run through a third protein.

This assay has as its target Myc‐tagged Fbxl17 lacking the F‐box domain (UniProt Q9UF56). The assay is described as follows: co-IP; Myc‐tagged Fbxl17‐truncated fragments immunoprecipitated from HEK293T cells treated with MLN4924 (2 μM, 5 h); endogenous Sufu and Skp1 detected.

As to “Skp1 (S‐phase kinase‐associated protein 1) (from UniProt P63208 1-163)”, the binding result is reported as “no binding”.
